Results deposited as PubChem BioAssay AID1259308 (NCATS, 2017).
The whole screen tested about 59,000 reagents; shown is an unselected part. Over the whole deposit, about 1,510 (2.6%) are marked active. 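Calls use total luciferase alone and ignore viability, so some active siRNAs may act by altering cell number.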 The numbers tell different reagents against one gene apart. Not all columns of the deposit are shown.

- Assay: 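Knock-downs that increase output of a recombinant reporter protein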 (primary screen)
- System: human HEK293 embryonic kidney cells stably expressing firefly luciferase (HEK-CMV-Luc2-Hygro)
- Reagents: single siRNA against human genes, 0.8 pmol siRNA per well
- Time to read-out: 72 h
- Measurement: 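Reporter luminescence and viable-cell signal on separate replicate plates, given as percent of non-targeting control and median/MAD z-scores, plus per-cell luciferase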
- Scale: total luciferase, z-score: higher = more reporter protein produced
- Active means: 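Active when the median/MAD z-score for overall luciferase is greater than 3; a gene was taken forward for validation with new siRNAs if at least two of its three siRNAs passed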
- Meaning of the calls: active = raised luciferase; inactive = no rise

target gene | siRNA no. | total luciferase, z-score | call
DPPA4 | 1 | 1.55 | inactive
DPPA4 | 2 | -1.61 | inactive
DPPA4 | 3 | -0.617 | inactive
LYL1 | 1 | -1.77 | inactive
LYL1 | 2 | -1.46 | inactive
LYL1 | 3 | -1.08 | inactive
TMPRSS7 | 1 | -0.0236 | inactive
TMPRSS7 | 2 | -0.137 | inactive
TMPRSS7 | 3 | -0.592 | inactive
C1QTNF5 | 1 | 1.56 | inactive
C1QTNF5 | 2 | 0.28 | inactive
C1QTNF5 | 3 | 2.55 | inactive
ADGRE1 | 1 | 0.711 | inactive
ADGRE1 | 2 | -0.0692 | inactive
ADGRE1 | 3 | -0.296 | inactive
ABCB10 | 1 | -0.887 | inactive
ABCB10 | 2 | 0.0196 | inactive
ABCB10 | 3 | -0.00249 | inactive
PPP1R36 | 1 | -1.14 | inactive
PPP1R36 | 2 | 2.01 | inactive
PPP1R36 | 3 | 3.8 | active
ZNF512 | 1 | -0.985 | inactive
ZNF512 | 2 | 0.737 | inactive
ZNF512 | 3 | 1.09 | inactive
EPS8L3 | 1 | 0.443 | inactive
EPS8L3 | 2 | -0.134 | inactive
EPS8L3 | 3 | -0.153 | inactive
MYL2 | 1 | -0.48 | inactive
MYL2 | 2 | 0.0277 | inactive
MYL2 | 3 | 0.0985 | inactive
OR52E4 | 1 | 1.56 | inactive
OR52E4 | 2 | 0.0952 | inactive
OR52E4 | 3 | 0.647 | inactive
TNFRSF11B | 1 | 1.33 | inactive
TNFRSF11B | 2 | -0.221 | inactive
TNFRSF11B | 3 | -0.867 | inactive
TNFAIP2 | 1 | -0.672 | inactive
TNFAIP2 | 2 | 0.112 | inactive
TNFAIP2 | 3 | 1.14 | inactive
EPB42 | 1 | 0.435 | inactive
EPB42 | 2 | -0.25 | inactive
EPB42 | 3 | -0.313 | inactive
FAM170B | 1 | 0.444 | inactive
FAM170B | 2 | -0.567 | inactive
FAM170B | 3 | -0.113 | inactive
KRT20 | 1 | 1.04 | inactive
KRT20 | 2 | 1.59 | inactive
KRT20 | 3 | -0.816 | inactive
EIF3A | 1 | -1.83 | inactive
EIF3A | 2 | -1.9 | inactive
EIF3A | 3 | -2.29 | inactive
PNPP1 | 1 | -1.16 | inactive
PNPP1 | 2 | 0.0606 | inactive
PNPP1 | 3 | 2.18 | inactive
ACBD5 | 1 | -0.548 | inactive
ACBD5 | 2 | -0.643 | inactive
ACBD5 | 3 | -0.435 | inactive
